A short description of the series: general procedure: Fmoc solid-phase peptide synthesis; Rink amide resin; DIC / OxymaPure. Conditions: for step yield: purification step; for isolated yield: whole synthesis, scale of the general procedure 0.1 mmol.

Take H-(Aryl-SO2F)—(N3—K)-LRMADPNRFRGRDL-NH2: the step yield was determined as 13%.

“H—Ac—(N3—K)-LRMADPNR-(Y—OSO2F)-RGRDL-NHz (Ac, azido-Lys, fluorosulfate Tyr, C-amide)” came in with an isolated yield of 20.9%. In turn, “H—Ac—(N3—K)-LRMADPNRFRGRDL-(Y—OSO2F)—NH2” came in with an isolated yield of 44%. H—Ac—(N3—K)-LRMADPNRFRGRDLY-NH2 registered a step yield of 22.5%. “H—Ac—(Y—OSO2F)—(N3—K)-LRMADPNRFRGRDL-NH2”: the isolated yield is on record as 34.0%.
